According to the supplement of paper PMC10849652:
The list shows a part of the results.

Amino acid sequences for entries named in this document (tags omitted). A change or cut given only in a name is not applied to a line headed by its entry.
UniProt Q9Y6I9: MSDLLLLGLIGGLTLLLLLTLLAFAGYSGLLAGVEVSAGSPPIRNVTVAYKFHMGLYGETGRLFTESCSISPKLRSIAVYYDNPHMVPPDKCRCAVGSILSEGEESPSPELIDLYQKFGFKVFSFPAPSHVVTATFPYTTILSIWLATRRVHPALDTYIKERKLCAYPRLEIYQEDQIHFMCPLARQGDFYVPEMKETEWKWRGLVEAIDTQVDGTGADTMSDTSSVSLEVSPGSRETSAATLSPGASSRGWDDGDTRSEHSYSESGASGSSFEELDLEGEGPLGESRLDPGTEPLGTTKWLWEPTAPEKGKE
UniProt Q9Y5J7: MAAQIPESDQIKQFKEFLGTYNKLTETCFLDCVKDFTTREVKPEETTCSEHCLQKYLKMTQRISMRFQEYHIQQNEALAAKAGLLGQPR
UniProt P62072: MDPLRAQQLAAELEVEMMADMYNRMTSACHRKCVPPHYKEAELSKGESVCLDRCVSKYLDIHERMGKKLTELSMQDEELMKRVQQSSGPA
UniProt Q9UP52: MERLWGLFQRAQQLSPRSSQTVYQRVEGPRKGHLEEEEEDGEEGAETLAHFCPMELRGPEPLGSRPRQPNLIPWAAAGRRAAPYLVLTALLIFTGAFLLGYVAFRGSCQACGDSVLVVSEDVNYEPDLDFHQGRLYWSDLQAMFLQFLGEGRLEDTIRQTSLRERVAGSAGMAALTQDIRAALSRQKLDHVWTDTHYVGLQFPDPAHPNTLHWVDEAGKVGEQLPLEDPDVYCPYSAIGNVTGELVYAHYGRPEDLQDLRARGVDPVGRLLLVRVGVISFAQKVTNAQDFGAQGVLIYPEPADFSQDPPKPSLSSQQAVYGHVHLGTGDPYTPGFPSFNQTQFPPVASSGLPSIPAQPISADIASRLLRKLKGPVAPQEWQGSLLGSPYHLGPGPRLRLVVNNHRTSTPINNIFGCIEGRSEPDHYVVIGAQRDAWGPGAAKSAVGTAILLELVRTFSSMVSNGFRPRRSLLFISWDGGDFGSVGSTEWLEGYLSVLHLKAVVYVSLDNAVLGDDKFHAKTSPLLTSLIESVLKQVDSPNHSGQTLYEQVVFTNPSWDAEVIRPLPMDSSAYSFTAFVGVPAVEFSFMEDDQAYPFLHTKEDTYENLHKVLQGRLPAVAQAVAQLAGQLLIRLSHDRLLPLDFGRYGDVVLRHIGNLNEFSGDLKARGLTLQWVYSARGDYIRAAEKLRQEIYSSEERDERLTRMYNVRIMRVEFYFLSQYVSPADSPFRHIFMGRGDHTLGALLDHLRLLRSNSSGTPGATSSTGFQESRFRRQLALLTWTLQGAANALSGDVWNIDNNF
UniProt Q66K14, whole entry, looked up: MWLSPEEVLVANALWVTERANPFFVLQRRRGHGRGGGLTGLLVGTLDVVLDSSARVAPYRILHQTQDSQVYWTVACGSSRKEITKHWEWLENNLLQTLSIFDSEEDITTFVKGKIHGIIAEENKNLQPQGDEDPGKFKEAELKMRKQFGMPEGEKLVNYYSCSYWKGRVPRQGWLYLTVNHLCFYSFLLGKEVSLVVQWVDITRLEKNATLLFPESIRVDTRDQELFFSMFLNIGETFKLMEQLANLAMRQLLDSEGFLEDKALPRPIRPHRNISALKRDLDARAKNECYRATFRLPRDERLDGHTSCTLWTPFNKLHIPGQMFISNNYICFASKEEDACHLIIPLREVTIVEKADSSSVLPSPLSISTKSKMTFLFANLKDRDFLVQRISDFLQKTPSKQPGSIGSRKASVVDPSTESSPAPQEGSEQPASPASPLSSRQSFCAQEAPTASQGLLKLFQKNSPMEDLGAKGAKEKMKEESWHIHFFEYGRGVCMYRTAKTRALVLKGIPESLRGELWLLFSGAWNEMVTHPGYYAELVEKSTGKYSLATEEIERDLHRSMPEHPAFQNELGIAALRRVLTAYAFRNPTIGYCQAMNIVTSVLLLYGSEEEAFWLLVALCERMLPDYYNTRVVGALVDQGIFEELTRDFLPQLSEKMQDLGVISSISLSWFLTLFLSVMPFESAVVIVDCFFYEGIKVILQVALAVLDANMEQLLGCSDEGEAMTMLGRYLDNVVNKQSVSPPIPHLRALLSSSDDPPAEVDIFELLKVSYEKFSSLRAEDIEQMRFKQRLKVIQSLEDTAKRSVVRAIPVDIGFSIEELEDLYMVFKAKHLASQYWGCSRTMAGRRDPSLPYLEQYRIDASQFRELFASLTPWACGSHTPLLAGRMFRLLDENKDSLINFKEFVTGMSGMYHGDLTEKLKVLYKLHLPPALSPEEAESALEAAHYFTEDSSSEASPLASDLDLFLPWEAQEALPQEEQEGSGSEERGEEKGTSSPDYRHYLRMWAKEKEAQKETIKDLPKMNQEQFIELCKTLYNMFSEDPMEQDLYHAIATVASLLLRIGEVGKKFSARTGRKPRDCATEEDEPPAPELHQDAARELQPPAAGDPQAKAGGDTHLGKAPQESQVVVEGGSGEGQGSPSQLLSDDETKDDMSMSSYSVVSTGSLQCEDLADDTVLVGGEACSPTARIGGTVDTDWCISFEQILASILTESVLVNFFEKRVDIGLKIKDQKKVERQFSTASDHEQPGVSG
UniProt Q3LXA3: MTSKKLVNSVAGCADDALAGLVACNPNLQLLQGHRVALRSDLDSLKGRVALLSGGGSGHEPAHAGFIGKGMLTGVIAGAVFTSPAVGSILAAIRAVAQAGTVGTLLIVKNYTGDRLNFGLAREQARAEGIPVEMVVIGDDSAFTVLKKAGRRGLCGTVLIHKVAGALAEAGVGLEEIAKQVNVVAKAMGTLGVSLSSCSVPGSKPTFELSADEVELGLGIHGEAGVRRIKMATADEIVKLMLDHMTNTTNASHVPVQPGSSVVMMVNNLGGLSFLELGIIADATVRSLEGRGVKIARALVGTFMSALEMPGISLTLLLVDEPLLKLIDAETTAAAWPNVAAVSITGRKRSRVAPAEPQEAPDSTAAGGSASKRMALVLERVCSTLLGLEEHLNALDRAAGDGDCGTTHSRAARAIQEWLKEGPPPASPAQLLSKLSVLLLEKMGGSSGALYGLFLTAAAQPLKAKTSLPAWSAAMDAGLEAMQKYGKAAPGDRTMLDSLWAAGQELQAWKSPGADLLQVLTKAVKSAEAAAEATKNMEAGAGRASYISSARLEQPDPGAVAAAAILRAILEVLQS
UniProt Q9BTF0: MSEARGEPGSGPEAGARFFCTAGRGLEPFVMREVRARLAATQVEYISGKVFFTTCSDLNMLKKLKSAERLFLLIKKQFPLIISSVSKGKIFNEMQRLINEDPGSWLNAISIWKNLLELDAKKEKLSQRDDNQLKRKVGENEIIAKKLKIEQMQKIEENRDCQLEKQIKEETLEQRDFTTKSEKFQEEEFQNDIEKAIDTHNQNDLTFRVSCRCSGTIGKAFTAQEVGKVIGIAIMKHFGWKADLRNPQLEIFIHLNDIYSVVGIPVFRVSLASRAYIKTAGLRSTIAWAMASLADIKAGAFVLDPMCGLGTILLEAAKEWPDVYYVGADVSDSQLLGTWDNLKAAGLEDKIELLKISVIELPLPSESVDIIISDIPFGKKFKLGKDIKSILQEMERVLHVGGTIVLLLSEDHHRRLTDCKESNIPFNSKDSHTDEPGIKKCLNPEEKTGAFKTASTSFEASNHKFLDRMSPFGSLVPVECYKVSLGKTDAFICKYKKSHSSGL
UniProt P02786, whole entry, looked up: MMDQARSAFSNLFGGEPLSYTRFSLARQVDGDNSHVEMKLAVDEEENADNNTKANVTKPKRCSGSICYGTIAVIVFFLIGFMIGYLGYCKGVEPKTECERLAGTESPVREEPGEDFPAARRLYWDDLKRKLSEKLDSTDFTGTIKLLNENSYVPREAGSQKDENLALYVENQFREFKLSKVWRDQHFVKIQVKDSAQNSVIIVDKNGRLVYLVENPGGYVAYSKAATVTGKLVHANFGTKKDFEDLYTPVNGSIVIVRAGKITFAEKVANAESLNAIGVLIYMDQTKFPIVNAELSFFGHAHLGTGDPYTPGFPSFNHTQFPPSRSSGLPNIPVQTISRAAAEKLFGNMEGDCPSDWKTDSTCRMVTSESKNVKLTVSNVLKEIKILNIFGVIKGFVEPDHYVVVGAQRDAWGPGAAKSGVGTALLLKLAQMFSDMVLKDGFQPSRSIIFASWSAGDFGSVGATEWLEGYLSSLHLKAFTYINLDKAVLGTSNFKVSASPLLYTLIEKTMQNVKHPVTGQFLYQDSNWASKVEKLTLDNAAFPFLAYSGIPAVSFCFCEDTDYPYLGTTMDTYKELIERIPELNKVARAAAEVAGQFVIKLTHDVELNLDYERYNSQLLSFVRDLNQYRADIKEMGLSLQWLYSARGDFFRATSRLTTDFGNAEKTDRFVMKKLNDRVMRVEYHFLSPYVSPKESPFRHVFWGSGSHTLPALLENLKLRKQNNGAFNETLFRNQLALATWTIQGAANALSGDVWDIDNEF
UniProt Q15814: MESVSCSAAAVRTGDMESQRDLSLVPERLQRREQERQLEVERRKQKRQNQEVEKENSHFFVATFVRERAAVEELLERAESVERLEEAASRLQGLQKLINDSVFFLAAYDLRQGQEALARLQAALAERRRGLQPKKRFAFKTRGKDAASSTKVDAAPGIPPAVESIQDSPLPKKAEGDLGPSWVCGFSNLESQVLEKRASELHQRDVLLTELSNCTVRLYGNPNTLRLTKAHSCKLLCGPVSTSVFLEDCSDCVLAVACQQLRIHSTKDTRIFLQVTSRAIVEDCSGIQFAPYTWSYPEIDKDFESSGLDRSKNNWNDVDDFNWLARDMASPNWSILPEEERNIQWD
UniProt Q9UGI8: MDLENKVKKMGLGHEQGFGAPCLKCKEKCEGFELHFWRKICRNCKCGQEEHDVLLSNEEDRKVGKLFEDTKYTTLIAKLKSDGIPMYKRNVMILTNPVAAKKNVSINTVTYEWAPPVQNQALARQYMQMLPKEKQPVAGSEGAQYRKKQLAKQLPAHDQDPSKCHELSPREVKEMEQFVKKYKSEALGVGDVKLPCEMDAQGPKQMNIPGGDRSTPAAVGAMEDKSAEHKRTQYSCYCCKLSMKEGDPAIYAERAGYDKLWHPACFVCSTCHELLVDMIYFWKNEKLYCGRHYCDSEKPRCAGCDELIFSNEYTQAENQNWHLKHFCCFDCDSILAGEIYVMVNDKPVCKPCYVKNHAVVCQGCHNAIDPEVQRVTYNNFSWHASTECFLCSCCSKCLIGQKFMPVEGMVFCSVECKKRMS
UniProt O75347: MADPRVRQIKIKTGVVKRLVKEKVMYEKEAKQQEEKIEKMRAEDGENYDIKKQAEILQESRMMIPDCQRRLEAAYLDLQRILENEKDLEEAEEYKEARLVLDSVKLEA
UniProt O60343: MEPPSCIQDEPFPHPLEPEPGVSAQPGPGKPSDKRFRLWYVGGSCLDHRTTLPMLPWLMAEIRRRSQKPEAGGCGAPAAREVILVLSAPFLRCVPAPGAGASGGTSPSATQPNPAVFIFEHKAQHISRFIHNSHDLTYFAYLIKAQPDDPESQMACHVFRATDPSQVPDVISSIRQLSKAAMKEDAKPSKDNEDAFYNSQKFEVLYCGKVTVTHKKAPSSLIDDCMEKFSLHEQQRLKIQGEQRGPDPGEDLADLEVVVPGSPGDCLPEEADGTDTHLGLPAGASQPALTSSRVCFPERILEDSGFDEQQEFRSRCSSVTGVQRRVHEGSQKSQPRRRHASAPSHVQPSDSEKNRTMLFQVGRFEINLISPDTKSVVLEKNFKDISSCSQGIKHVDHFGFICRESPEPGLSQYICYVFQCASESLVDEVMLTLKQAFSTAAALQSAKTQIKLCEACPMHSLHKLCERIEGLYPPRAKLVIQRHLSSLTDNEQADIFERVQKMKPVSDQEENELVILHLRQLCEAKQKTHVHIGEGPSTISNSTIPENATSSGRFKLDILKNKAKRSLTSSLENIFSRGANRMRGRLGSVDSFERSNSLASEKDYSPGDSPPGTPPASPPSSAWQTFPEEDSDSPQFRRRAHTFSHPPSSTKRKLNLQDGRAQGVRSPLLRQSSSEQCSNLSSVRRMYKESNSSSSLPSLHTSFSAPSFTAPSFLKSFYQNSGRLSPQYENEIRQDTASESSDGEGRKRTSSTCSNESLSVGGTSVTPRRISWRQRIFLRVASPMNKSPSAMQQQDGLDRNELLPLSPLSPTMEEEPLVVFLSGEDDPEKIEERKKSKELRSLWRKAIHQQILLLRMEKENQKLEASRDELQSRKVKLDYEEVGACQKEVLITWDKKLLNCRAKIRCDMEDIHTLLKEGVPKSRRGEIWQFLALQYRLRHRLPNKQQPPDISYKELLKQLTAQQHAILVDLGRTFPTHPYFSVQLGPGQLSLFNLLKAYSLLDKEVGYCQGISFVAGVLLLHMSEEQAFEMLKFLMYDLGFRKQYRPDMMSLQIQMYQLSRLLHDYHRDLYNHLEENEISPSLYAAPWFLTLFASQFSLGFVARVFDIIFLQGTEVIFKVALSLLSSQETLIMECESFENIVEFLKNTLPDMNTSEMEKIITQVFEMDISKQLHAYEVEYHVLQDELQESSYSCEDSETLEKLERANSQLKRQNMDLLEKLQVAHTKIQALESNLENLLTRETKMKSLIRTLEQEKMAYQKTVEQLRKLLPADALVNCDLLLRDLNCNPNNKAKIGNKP

Compound: CS(=O)(=O)CCNCc1ccc(-c2ccc3ncnc(Nc4ccc(OCc5cccc(F)c5)c(Cl)c4)c3c2)o1 [lapatinib]
Assay: log2 fold change, soluble protein after heating vs DMSO (PISA); higher = thermal stabilisation; K562 cells, 10 uM, 30 min; active = over 0.2 and 3.5 SD of the protein, either way, in both replicates (recomputed)
In short: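 K562 cells at 2×10^6 cells/mL were treated with 10 μM compound for 30 min. Aliquots were heated for 3 min across 48°C-58°C, pooled, and extracted in PBS with 0.5% NP-40 at 4°C; soluble protein was the supernatant after 21,000xg for 90 min. Soluble protein was quantified by TMTpro 16plex LC-MS/MS with channel sums equalised, and reported as log2 fold change in thermal stability against DMSO controls, with values from duplicates.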

log2 fold change, inactive:
TEX264 (UniProt Q9Y6I9) 0.421
THOP1 (UniProt P52888) -0.019
TGFBRAP1 (UniProt Q8WUH2) -0.098
TIMM9 (UniProt Q9Y5J7) -0.07
TCF3 (UniProt P15923) -0.013
TIMM10 (UniProt P62072) -0.026
TFR2 (UniProt Q9UP52) -0.011
TBL1XR1 (UniProt Q9BZK7) 0.025
TBC1D9B (UniProt Q66K14) -0.031
TKFC (UniProt Q3LXA3) -0.042
TGFBR1 isoform 2 (UniProt P36897) 0.063
TCOF1 isoform 4 (UniProt Q13428) 0.017
TIMM8A (UniProt O60220) -0.063
THUMPD2 (UniProt Q9BTF0) -0.016
TFB2M (UniProt Q9H5Q4) -0.001
TIMM17A (UniProt Q99595) -0.016
TFRC (UniProt P02786) -0.03
THG1L (UniProt Q9NWX6) -0.016
TBCC (UniProt Q15814) 0.014
TES (UniProt Q9UGI8) 0.012
TELO2 (UniProt Q9Y4R8) 0.007
TBCA (UniProt O75347) -0.035
TBC1D4 (UniProt O60343) 0.019

Retrieved one by one from the list above:
log2 fold change, inactive:
TKFC (UniProt Q3LXA3) -0.042
TIMM10 (UniProt P62072) -0.026
